The list shows only some results of the screen, not a fair sample: its compounds were picked by chemical class. Other doses and runs of a compound may be missing. T/C: endpoint of the treated group in % of that of the vehicle group. Some doses have a count of surviving animals in place of a T/C: the source files T/C as zero there, which appears to mark a toxic dose or a test without result, not a measured value. Some doses without a T/C left all or most animals alive at the check, yet need not have been tolerated: survival well below the control is almost never listed, so the zero probably covers shortened survival too. Counts of survivors are from the toxicity check (mostly the fifth day) where no day follows; animals may have died later. Schedule codes are those of the source, read here as Q, the interval in days (D) or hours (H), X, the number of doses. Some metal complexes and salts are drawn in pieces, as in the source, so charges may not balance. Where survival is the endpoint, the PubChem record calls one and a half times the control and up active, and a quarter to a half above the control has no call in these data; cut-offs in other NCI protocols can differ. Some T/C values are followed by the survivors on the day toxicity was checked, most often the fifth; without a count or a note in brackets, all were alive then. Some entries hold several experiments; their values stand side by side, smallest first. Some T/C values are marked as having no survivor count here; that says nothing about deaths at the dose. Some structures stand for samples that the source files as different forms (salt, stereo form or complex); doses refer to the form tested.
Tested on: L1210 leukemia ip in BDF1 mice, survival T/C
Assay: NCI In Vivo Anticancer Drug Screen. Data for tumor model L1210 Leukemia (intraperitoneal) in B6D2F1 (BDF1) mice
Details: T/C endpoint: mean survival time, higher T/C = longer survival
[1] = dose: 75.0 mg/kg/injection, schedule: Q01DX001 (ip), vehicle: carboxymethylcellulose (CMC)
[2] = dose: 100.0 mg/kg/injection, schedule: Q01DX009 (ip), vehicle: saline
[3] = dose: 132.0 mg/kg/injection, schedule: Q01DX001 (ip), vehicle: saline
[4] = dose: 150.0 mg/kg/injection, schedule: Q01DX001 (ip), vehicle: carboxymethylcellulose (CMC)
[5] = dose: 200.0 mg/kg/injection, schedule: Q01DX001 (ip), vehicle: saline
[6] = dose: 100.0 mg/kg/injection, schedule: Q04DX003 (ip), vehicle: saline
[7] = dose: 200.0 mg/kg/injection, schedule: Q04DX003 (ip), vehicle: saline
[8] = dose: 400.0 mg/kg/injection, schedule: Q04DX003 (ip), vehicle: saline
[9] = dose: 100.0 mg/kg/injection, schedule: Q01DX001 (ip), vehicle: saline
[10] = dose: 400.0 mg/kg/injection, schedule: Q01DX001 (ip), vehicle: saline

In the case of `Cc1cc(N(CCCl)CCCl)c2ccccc2c1`, the T/C (dose: 0.75 mg/kg/injection, schedule: Q01DX001 (ip), vehicle: saline) is reported as 93 % of control, the T/C (dose: 1.5 mg/kg/injection, schedule: Q01DX001 (ip), vehicle: saline) is reported as 95 % of control and the T/C (dose: 3.0 mg/kg/injection, schedule: Q01DX001 (ip), vehicle: saline) is reported as 98 % of control. For the same compound, the T/C (dose: 6.0 mg/kg/injection, schedule: Q01DX001 (ip), vehicle: saline) was 106 % of control, the T/C (dose: 11.0 mg/kg/injection, schedule: Q01DX001 (ip), vehicle: Klucel (hydroxypropylcellulose) (HPC)) was 124 % of control and the T/C (dose: 19.0 mg/kg/injection, schedule: Q01DX009 (ip), vehicle: saline) was 123 % of control. For the same compound, the T/C (dose: 22.0 mg/kg/injection, schedule: Q01DX001 (ip), vehicle: Klucel (hydroxypropylcellulose) (HPC)) was 112 % of control, the T/C (dose: 29.0 mg/kg/injection, schedule: Q01DX009 (ip), vehicle: saline) was 146 % of control and the T/C (dose: 38.0 mg/kg/injection, schedule: Q01DX001 (ip), vehicle: saline) was 115 % of control. For the same compound, the T/C (dose: 44.0 mg/kg/injection, schedule: Q01DX001 (ip), vehicle: Klucel (hydroxypropylcellulose) (HPC)) was 124 % of control, the T/C (dose: 44.0 mg/kg/injection, schedule: Q01DX009 (ip), vehicle: saline) was 109 % of control [5 of 6 alive] and the T/C (dose: 58.0 mg/kg/injection, schedule: Q01DX001 (ip), vehicle: saline) was 120 % of control. The survivor count (dose: 66.0 mg/kg/injection, schedule: Q01DX009 (ip), vehicle: carboxymethylcellulose (CMC)) was 6 of 6, the T/C (dose: 66.0 mg/kg/injection, schedule: Q01DX009 (ip), vehicle: saline) was 89 % of control and the T/C [1] was 120 % of control. For the same compound, the T/C (dose: 88.0 mg/kg/injection, schedule: Q01DX001 (ip), vehicle: Klucel (hydroxypropylcellulose) (HPC)) was 135 % of control [5 of 6 alive], the T/C (dose: 88.0 mg/kg/injection, schedule: Q01DX001 (ip), vehicle: carboxymethylcellulose (CMC)) was 115 % of control and the T/C (dose: 88.0 mg/kg/injection, schedule: Q01DX001 (ip), vehicle: saline) was 126, 143, 151 % of control. The survivor count (dose: 100.0 mg/kg/injection, schedule: Q01DX009 (ip), vehicle: carboxymethylcellulose (CMC)) was 6 of 6, the survivor count [2] was 4 of 6 and the T/C (dose: 132.0 mg/kg/injection, schedule: Q01DX001 (ip), vehicle: carboxymethylcellulose (CMC)) was 119 % of control. For the same compound, the T/C [3] was 158 % of control, the survivor count [3] was 6 of 6 and the T/C [4] was 129 % of control. The survivor count (dose: 150.0 mg/kg/injection, schedule: Q01DX009 (ip), vehicle: carboxymethylcellulose (CMC)) was 6 of 6, the survivor count (dose: 150.0 mg/kg/injection, schedule: Q01DX009 (ip), vehicle: saline) was 1 of 6 and the T/C (dose: 200.0 mg/kg/injection, schedule: Q01DX001 (ip), vehicle: carboxymethylcellulose (CMC)) was 107 % of control. For the same compound, the T/C [5] was 86 [5 of 6 alive] and 134 % of control, the survivor count (dose: 225.0 mg/kg/injection, schedule: Q01DX009 (ip), vehicle: carboxymethylcellulose (CMC)) was 3 of 6 and the T/C (dose: 300.0 mg/kg/injection, schedule: Q01DX001 (ip), vehicle: carboxymethylcellulose (CMC), evaluated on day 30) was 111 % of control. For the same compound, the T/C (dose: 300.0 mg/kg/injection, schedule: Q01DX001 (ip), vehicle: carboxymethylcellulose (CMC), run until all animals had died) was 145 % of control, the T/C (dose: 300.0 mg/kg/injection, schedule: Q01DX001 (ip), vehicle: saline) was 88 [5 of 6 alive] and 132 % of control and the survivor count (dose: 600.0 mg/kg/injection, schedule: Q01DX001 (ip), vehicle: Klucel (hydroxypropylcellulose) (HPC)) was 1 of 6. The T/C (dose: 800.0 mg/kg/injection, schedule: Q01DX001 (ip), vehicle: saline) was 141 % of control.
`OP(Oc1ccccc1)Oc1ccccc1.[Hg]` was tested, and the T/C [6] was 103 % of control, the T/C [7] was 97 % of control and the T/C [8] was 110 % of control.
`O=[N+]([O-])c1cc([N+](=O)[O-])c(S(=O)(=O)[O-])c([N+](=O)[O-])c1.c1ccc2cc3[s+]c4ccccc4cc3cc2c1` was tested, and the T/C (dose: 100.0 mg/kg/injection, schedule: Q01DX001 (ip), vehicle: acetone) was 89 % of control [survivor count not shown], the T/C (dose: 200.0 mg/kg/injection, schedule: Q01DX001 (ip), vehicle: acetone) was 95 % of control [survivor count not shown] and the T/C (dose: 400.0 mg/kg/injection, schedule: Q01DX001 (ip), vehicle: acetone) was 103 % of control [survivor count not shown].
In the case of `ClCCN(CCCl)/N=N/c1nn[nH]n1`, the T/C (dose: 50.0 mg/kg/injection, schedule: Q01DX001 (ip), vehicle: saline with Tween-80) is reported as 101 % of control, the T/C (dose: 100.0 mg/kg/injection, schedule: Q01DX001 (ip), vehicle: saline with Tween-80) is reported as 101 % of control and the T/C (dose: 200.0 mg/kg/injection, schedule: Q01DX001 (ip), vehicle: saline with Tween-80) is reported as 104 % of control. The T/C (dose: 400.0 mg/kg/injection, schedule: Q01DX001 (ip), vehicle: saline with Tween-80) was 93 % of control.
`[B-][N+]1(C)CCN(C)P1F` (stereo unspecified) was tested, and the T/C (dose: 38.0 mg/kg/injection, schedule: Q01DX001 (ip), vehicle: carboxymethylcellulose (CMC)) was 104 % of control, the T/C [1] was 120 % of control [5 of 6 alive] and the survivor count [4] was 0 of 6.
`CN(C)CC1CCCCC(CN(C)C)C1OC(=O)C(O)(c1ccccc1)c1ccccc1` (stereo unspecified) was tested, and the T/C (dose: 75.0 mg/kg/injection, schedule: Q01DX001 (ip), vehicle: saline) was 110 % of control.
With `O=C(OCCOC(=O)c1cc([N+](=O)[O-])cc([N+](=O)[O-])c1)c1cc([N+](=O)[O-])cc([N+](=O)[O-])c1` the T/C [9] was 92 % of control, the T/C [5] was 87 % of control and the T/C [10] was 92 % of control.
In the case of `NC1CCCCC1.O=C(O)CCOP(=O)(O)N(CCCl)CCCl`, the T/C (dose: 12.5 mg/kg/injection, schedule: Q01DX001 (ip), vehicle: saline) is reported as 95 % of control, the T/C (dose: 25.0 mg/kg/injection, schedule: Q01DX001 (ip), vehicle: saline) is reported as 91 % of control and the T/C (dose: 50.0 mg/kg/injection, schedule: Q01DX001 (ip), vehicle: saline) is reported as 97 % of control. For the same compound, the T/C (dose: 88.0 mg/kg/injection, schedule: Q04DX003 (ip), vehicle: saline) was 111 % of control, the T/C [9] was 111 % of control and the T/C [2] was 103 % of control. For the same compound, the T/C [6] was 118 % of control, the T/C (dose: 133.0 mg/kg/injection, schedule: Q04DX003 (ip), vehicle: saline) was 124 % of control and the T/C [5] was 100 % of control. The T/C (dose: 200.0 mg/kg/injection, schedule: Q01DX009 (ip), vehicle: saline) was 137 % of control, the T/C [7] was 122 and 132 % of control and the T/C (dose: 300.0 mg/kg/injection, schedule: Q04DX003 (ip), vehicle: saline) was 130 % of control. The T/C [10] was 112 % of control, the T/C (dose: 400.0 mg/kg/injection, schedule: Q01DX009 (ip), vehicle: saline) was 177 % of control [5 of 6 alive] and the T/C [8] was 139 % of control.
In the case of `O=[N+]([O-])c1ccc(NCCCl)c([N+](=O)[O-])c1`, the T/C (dose: 100.0 mg/kg/injection, schedule: Q04DX002 (ip), vehicle: Klucel (hydroxypropylcellulose) (HPC)) is reported as 100 % of control, the T/C (dose: 200.0 mg/kg/injection, schedule: Q04DX002 (ip), vehicle: Klucel (hydroxypropylcellulose) (HPC)) is reported as 95 % of control and the T/C (dose: 400.0 mg/kg/injection, schedule: Q04DX002 (ip), vehicle: Klucel (hydroxypropylcellulose) (HPC)) is reported as 109 % of control [2 of 3 alive].
In the case of `n1nc(-c2nn[nH]n2)n[nH]1`, the T/C (dose: 100.0 mg/kg/injection, schedule: Q04DX003 (ip), vehicle: saline with Tween-80) is reported as 90 % of control [survivor count not shown], the T/C [6] is reported as 104 % of control [survivor count not shown] and the T/C [7] is reported as 93 % of control [survivor count not shown]. The T/C [8] was 96 % of control [survivor count not shown].
`O=C(CSc1ccc([N+](=O)[O-])cc1[N+](=O)[O-])c1ccc([N+](=O)[O-])cc1` was tested, and the T/C (dose: 100.0 mg/kg/injection, schedule: Q01DX001 (ip), vehicle: Klucel (hydroxypropylcellulose) (HPC)) was 90 % of control, the T/C (dose: 200.0 mg/kg/injection, schedule: Q01DX001 (ip), vehicle: Klucel (hydroxypropylcellulose) (HPC)) was 89 % of control and the T/C (dose: 400.0 mg/kg/injection, schedule: Q01DX001 (ip), vehicle: Klucel (hydroxypropylcellulose) (HPC)) was 90 % of control.
